Measurements from publication PMC5660093, “Structure of SgK223 pseudokinase reveals novel mechanisms of homotypic and heterotypic association” (Nature Communications, 2017).
Positions count from the first letter of the chain named. These are yes or no findings as the source states them, for the method shown. In cells and extracts the contact can be indirect. Some binding calls cover weakened binding; strength is not graded here. Tags and fused reporters may be left off the sequences shown.

Amino acid sequences for entries named in this document (tags omitted).
UniProt Q9H792: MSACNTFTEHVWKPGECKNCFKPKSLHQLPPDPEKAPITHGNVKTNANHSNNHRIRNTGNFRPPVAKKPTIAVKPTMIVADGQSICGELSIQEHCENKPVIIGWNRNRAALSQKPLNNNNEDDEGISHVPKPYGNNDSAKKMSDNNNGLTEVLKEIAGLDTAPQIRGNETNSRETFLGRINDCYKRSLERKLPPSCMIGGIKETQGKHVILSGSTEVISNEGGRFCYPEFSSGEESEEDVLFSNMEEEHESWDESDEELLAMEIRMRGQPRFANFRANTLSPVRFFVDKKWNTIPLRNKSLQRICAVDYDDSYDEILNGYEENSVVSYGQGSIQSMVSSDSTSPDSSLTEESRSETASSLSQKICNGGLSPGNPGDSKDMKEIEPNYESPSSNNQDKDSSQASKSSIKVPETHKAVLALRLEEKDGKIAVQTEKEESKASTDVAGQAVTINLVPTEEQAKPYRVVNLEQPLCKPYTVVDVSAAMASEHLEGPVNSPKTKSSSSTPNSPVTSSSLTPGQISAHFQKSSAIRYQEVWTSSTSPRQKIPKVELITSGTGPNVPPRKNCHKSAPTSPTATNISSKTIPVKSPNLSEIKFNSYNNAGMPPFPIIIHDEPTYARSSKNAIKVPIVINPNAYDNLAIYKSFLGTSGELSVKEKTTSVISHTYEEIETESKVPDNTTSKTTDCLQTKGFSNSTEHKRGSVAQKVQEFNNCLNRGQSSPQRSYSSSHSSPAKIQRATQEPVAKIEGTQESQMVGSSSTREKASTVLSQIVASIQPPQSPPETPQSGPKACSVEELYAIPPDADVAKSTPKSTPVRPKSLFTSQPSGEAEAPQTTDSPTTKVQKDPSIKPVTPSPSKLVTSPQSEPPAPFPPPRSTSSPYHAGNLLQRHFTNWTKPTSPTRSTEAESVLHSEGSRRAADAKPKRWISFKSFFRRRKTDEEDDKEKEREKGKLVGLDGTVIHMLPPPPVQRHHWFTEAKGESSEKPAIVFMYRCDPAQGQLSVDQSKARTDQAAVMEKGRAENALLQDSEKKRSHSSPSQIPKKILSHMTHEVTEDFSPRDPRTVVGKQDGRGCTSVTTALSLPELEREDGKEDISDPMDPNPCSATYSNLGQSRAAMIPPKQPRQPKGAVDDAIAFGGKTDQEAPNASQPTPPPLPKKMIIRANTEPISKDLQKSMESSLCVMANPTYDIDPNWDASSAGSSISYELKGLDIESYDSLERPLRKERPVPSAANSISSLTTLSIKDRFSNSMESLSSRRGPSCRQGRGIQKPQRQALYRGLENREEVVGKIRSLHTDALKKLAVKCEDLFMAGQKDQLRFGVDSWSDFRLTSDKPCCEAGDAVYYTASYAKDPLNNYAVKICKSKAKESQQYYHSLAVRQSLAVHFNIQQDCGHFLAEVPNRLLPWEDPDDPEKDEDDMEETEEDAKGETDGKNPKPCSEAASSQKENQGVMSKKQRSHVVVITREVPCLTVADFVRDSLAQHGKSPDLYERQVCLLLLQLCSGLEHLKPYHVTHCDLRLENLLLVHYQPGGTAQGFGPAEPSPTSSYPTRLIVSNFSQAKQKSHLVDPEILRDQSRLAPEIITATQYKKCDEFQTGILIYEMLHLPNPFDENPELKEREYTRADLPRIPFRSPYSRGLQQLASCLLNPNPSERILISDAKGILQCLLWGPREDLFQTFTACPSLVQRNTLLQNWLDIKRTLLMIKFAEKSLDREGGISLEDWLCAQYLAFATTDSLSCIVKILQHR

Experiments:
[1] = molecular target: T1, HA-tagged FL SgK223 L966A (MCF-10A SgK223 KO) (UniProt Q86YV5); experiment: co-IP; HA-tagged FL SgK223 WT or mutants expressed in MCF-10A SgK223 KO cells; immunoprecipitation with anti-HA, blot with anti-SgK269 for the endogenous protein
T1 sequence: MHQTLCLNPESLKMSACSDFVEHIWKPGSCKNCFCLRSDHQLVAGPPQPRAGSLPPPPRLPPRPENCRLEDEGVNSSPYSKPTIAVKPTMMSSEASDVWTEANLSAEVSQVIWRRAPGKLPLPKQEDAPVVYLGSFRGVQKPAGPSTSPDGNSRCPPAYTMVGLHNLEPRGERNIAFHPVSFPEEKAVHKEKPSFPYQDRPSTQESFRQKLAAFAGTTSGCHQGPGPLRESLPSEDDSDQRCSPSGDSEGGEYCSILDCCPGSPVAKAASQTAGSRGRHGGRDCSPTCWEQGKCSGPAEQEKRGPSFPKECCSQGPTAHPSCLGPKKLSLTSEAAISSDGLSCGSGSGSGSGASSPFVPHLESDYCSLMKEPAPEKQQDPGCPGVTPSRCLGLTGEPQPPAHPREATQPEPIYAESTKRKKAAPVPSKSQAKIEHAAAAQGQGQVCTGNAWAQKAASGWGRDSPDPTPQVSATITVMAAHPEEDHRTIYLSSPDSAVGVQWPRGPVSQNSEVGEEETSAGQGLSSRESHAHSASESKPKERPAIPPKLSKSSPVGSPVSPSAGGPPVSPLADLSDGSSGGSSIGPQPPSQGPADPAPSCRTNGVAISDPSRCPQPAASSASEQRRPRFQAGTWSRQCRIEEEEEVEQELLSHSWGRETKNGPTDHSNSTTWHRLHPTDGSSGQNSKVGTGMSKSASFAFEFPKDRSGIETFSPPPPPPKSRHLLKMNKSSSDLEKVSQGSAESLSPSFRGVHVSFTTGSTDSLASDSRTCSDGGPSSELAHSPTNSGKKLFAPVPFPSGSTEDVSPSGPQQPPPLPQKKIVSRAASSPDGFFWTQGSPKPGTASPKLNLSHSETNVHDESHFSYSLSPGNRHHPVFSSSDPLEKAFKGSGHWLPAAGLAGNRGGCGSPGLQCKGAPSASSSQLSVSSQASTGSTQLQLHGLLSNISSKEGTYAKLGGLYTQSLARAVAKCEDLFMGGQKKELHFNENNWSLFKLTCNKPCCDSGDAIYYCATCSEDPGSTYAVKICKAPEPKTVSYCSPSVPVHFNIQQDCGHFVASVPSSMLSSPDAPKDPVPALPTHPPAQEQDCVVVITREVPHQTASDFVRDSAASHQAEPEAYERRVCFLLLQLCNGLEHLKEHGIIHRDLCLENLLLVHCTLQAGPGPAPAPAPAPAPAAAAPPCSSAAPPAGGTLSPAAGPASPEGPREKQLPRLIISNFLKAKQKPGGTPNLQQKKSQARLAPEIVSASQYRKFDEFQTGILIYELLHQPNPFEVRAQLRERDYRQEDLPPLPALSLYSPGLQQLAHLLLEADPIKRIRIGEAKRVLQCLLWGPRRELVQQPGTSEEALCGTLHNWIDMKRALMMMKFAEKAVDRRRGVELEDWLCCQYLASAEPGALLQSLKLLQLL

[2] = molecular target: T2, HA-tagged SgK223-WT (MCF-10A SgK223 KO) (UniProt Q86YV5); experiment: as above
T2 sequence: T1 sequence with A966L

In the case of “endogenous FL SgK269-WT (from UniProt Q9H792 1-1746)”, the binding [1] is reported as “no binding” and the binding [2] is reported as “binds”.
